According to article doi:10.1101/2023.03.15.532784:
These are yes or no findings as the source states them, for the method shown. In cells and extracts the contact can be indirect. Some results given as binding are weak or reduced against the parent protein; the word gives no strength.

The chains behind the UniProt entries cited, without tags or fusion partners.
UniProt Q9HBA0: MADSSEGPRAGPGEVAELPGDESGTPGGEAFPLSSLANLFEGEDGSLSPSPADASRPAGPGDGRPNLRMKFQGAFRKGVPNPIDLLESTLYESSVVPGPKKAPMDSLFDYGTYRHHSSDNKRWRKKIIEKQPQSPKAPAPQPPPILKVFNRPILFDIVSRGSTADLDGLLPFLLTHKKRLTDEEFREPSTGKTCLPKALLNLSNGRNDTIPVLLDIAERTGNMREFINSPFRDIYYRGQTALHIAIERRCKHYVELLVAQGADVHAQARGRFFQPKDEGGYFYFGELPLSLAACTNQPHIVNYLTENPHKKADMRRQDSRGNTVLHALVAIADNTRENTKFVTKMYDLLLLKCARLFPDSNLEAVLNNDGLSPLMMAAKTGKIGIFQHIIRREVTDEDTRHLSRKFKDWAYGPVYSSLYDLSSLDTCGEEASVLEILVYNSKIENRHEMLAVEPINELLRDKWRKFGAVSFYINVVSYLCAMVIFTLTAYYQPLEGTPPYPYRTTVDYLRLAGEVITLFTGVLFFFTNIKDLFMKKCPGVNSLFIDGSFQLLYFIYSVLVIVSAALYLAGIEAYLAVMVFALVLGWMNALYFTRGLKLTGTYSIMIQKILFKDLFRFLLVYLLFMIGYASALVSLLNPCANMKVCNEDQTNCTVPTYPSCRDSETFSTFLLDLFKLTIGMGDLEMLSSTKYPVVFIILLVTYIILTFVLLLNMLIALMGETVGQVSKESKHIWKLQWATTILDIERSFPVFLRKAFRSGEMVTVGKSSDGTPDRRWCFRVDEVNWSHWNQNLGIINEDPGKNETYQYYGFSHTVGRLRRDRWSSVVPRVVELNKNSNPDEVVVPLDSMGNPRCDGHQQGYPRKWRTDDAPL
UniProt P61586: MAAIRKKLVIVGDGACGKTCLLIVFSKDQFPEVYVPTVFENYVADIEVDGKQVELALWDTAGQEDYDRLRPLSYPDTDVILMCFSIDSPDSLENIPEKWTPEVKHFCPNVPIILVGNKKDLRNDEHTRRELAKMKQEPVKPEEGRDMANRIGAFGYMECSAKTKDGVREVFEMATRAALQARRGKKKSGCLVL

Biological target: GFP-tagged WT TRPV4 (human) (UniProt Q9HBA0)
Test: co-IP

- binding: binds
Substance: Myc-tagged WT RhoA (from UniProt P61586 1-193)
